{"sequences": {"note": "Sequences of proteins named here, by UniProt entry; tags and fusion partners are left off. Residues count along the entry.", "UniProt Q14BI2, 19-872": "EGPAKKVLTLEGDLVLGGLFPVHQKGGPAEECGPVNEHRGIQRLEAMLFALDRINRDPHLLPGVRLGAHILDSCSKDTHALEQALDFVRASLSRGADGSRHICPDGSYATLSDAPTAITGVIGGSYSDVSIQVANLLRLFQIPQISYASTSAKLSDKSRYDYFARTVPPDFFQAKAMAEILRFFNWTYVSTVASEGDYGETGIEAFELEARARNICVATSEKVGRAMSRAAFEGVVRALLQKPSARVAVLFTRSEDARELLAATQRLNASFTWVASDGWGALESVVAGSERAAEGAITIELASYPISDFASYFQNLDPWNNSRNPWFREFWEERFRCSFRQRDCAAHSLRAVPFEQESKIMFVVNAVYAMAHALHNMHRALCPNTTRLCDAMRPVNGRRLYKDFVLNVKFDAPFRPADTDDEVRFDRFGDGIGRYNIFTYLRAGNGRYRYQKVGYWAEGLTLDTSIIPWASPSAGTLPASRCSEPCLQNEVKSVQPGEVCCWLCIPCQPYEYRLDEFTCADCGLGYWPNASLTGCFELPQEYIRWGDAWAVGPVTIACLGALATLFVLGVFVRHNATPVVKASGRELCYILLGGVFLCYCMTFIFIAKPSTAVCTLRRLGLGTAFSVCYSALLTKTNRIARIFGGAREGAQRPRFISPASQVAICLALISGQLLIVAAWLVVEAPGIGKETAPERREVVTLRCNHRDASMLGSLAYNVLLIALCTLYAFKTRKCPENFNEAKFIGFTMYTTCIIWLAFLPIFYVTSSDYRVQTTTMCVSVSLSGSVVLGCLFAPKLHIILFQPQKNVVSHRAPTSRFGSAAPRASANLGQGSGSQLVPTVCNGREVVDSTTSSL"}, "source": "patent US10967078B2", "about": "“Radiolabelled mGluR2 PET ligands” (Janssen Pharmaceutica NV, priority 2014, dated 2021)", "key": {"[1]": {"target": "T1, mGluR2 (Mus musculus, UniProt Q14BI2)", "T1 construct": "horizontal sections of mGluR2 KO and WT mouse brain and of normal female Wistar rat brain; from tissue; host or cells: mouse brain sections (WT and mGluR2 KO), 20 µm", "assay": "In vitro autoradiography binding on mGluR2 KO and WT mouse brain sections", "conditions": "in words", "procedure": "(§1) In vitro autoradiography studies were performed on horizontal sections of mGluR2 KO and WT mouse brain and of normal female Wistar rat brain (20 μm). The sections were preincubated in 50 mM Tris-HCl (MgCl2 2 mM, CaCl2 2 mM; pH 7.0) for 10 min (two times) at room temperature and dried. Next, the brain sections were incubated with tracer [^11C]-2, [^11C]-5, [^11C]-4, [^11C]-1 or [^18F]-3 diluted in the same Tris-HCl buffer as used for the preincubation additionally containing 0.1% BSA or with this tracer solution in the presence of 10 μM Co. No. 2 or Co. No. 1. The mouse brain sections were incubated with 17 kBq of carbon-11 labeled tracer and 1.7 kBq of fluorine-18 labeled tracer. […] After 30 min of incubation, the brain sections were washed three times for 5 min in ice-cold Tris-HCl 50 mM ((MgCl2 2 mM, CaCl2 2 mM; pH 7.0+0.1% BSA buffer). After a quick dip in purified ice-cold water, the slides were dried. Autoradiograms were obtained by exposing the slides overnight to a high-performance phosphor storage screen (super-resolution screen; Perkin Elmer, Waltham, USA). The screens were read using a Cyclone Plus system (Perkin Elmer) and analysed using Optiquant software (Perkin Elmer). The radioactivity concentration in the autoradiograms was expressed in digital light units (DLU)/mm^2. […]"}, "[2]": {"target": "T2, mGluR2 (Rattus norvegicus, UniProt P31421)", "T2 construct": "horizontal sections of mGluR2 KO and WT mouse brain and of normal female Wistar rat brain; from tissue; host or cells: normal female Wistar rat brain sections, 20 µm", "assay": "In vitro autoradiography binding on normal female Wistar rat brain sections", "conditions": "in words", "procedure": "as §1"}}, "note": "“Also recorded” adds a separate entry of the source. For at least one compound, name, drawing or mass did not settle the structure.", "data": [{"smiles": "C[C@H]1CN(c2ccc(Cl)c(Cl)c2)C(=O)c2c(-c3ccnc([18F])c3)cnn21", "note": "[[^18F]-3]", "values": [{"measurement": "difference in tracer binding to WT and mGluR2 KO mouse brain sections", "setting": "[1]", "result": "no significant and consistent difference was observed; also recorded: Higher binding to WT sections was not observed for all WT"}, {"measurement": "total binding to normal rat brain sections", "setting": "[2]", "result": "differed from section to section"}]}]}
